Measurements published in PubChem BioAssay AID1347423 (Functional Genomics Laboratory (NCATS/FGL), 2020).
The campaign covered roughly 52,000 sequences. About 210 (0.4%) were called active.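 How the source made its calls: active means gene whose silencing raises cell survival under the drug, median off-target-corrected z-score across its silencing RNAs 2 or more; inactive means the rest.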 The list shows a part of the results.

test: Resistance to Poly (ADP-Ribose) Polymerase inhibitor: Gene Identification via Genome-wide siRNA Screen; settings: mouse BRCA2 R2336H ES cells, olaparib, CellTiter-Glo viability; hits give high values
Outline: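 Mouse BRCA2 R2336H ES cells were reverse-transfected with siRNA (20 nM final), treated at 48 h with 500 nM olaparib, and read by CellTiter-Glo after 72 h. Scores: MAD-based z per siRNA, median per gene, seed off-target correction.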

| Sequence | z-score |
| --- | --- |
| CCCACAAUCUCGACAGUCUTT against 4732471D19Rik | inactive: -0.502 |
| GGAAACUUAUGGAAAGUCUTT against 2410075D05Rik | inactive: -0.8 |
| GGUUUUUGAUAAUUGCCAUTT against 5730591C18Rik | inactive: 1.21 |
| GGUUACCUUGAGCUAUGGGTT against Rfng | inactive: -0.229 |
| GCCUCAAGAAUACGACGAUTT against Esrrbl1 | inactive: 1.03 |
| GGAGAAAGAUGGCUCAUCUTT against Itm2a | inactive: -3.07 |
| GGAAUUCAUCACUCAAAUGTT against Catsper4 | inactive: 0.876 |
| GGUGUCUCUGAAGAUUGAATT against Cdc6 | inactive: -1.03 |
| GGAUUGUCGAGAUUGCGUCTT against Tbcc | inactive: -0.092 |
| GGGACUGGAUUUCUGUAUUTT against 1110021N07Rik | inactive: 0.926 |
| GGUCUCUUCAUUCUUGUGCTT against 1700084J12Rik | inactive: 1.14 |
| CCAUUGUGUCAUACGGCUUTT against Olfr211 | inactive: -1.35 |
| GAACAACAACAGACAAGUGTT against Cxcl12 | inactive: -0.133 |
| GGAAUAGUAUACAAUAACCTT against Fbxl5 | inactive: 0.609 |
| GCUUGUUAUGAGCGGGCUUTT against Psx2 | inactive: 1.4 |
| GGAUGUUGUAGUCAAAACCTT against Ttll4 | inactive: 0.993 |
| GGUAUUCGCUUAAAAUCCATT against Stab2 | inactive: 1.42 |
| GCCACUGGUUCCAAUCGUCTT against Freq | inactive: 0.295 |
| GCCACGUACAACCUCUUCUTT against Tfcp2l4 | inactive: -0.225 |
| GGAAUUCAUCUUACAUUCCTT against Acox3 | inactive: -0.474 |
| GGCUGAAAAUGGGAAGCUUTT against MGC68323 | inactive: 1.39 |
| GGCUCUCUAGAUUCAAAAATT against Lars2 | inactive: 0.725 |

Two successive records from above, for reference:

| Sequence | z-score |
| --- | --- |
| CCAUUGUGUCAUACGGCUUTT against Olfr211 | inactive: -1.35 |
| GAACAACAACAGACAAGUGTT against Cxcl12 | inactive: -0.133 |

More results:

| Sequence | z-score |
| --- | --- |
| GCAAGAACUGACUUUCCUATT against Snn | inactive: -0.772 |
| GCACCAAAAUACACGAAAGTT against AW456874 | inactive: -0.00934 |
| GGAGAUGAAGAAGAUUCAATT against Pura | inactive: 1.85 |
| GCUACCUUCAGACAAGCACTT against Prss32 | inactive: 0.574 |
| GGUCUCUGAACUGAUCCGUTT against Cyp7a1 | inactive: -0.0222 |
| GGAUUGAAAUGUGUAAAACTT against 1700010C24Rik | inactive: -0.596 |
| GGUAAAUUGAGAGAAUAACTT against Tpd52 | inactive: 0.626 |
| GCAAGUCUGGAUGGAUGAGTT against 1190005I06Rik | inactive: 0.0823 |
| GGAUGAGUUCCUUUUACUATT against Cntnap4 | inactive: 0.0699 |
| GGAUUUGUUGGAAAUUGGATT against C030032C09Rik | inactive: -0.469 |
| GGACCAACAAGUUCAUCAATT against Arhgap10 | inactive: -1.93 |
| GGUAACAGAAUACCUGUCCTT against Hapln4 | inactive: 0.144 |
| GGAGAAUCUUCAACACUGGTT against Adprh | inactive: 0.333 |
| CCAAAGUCUGUUAAUGGGUTT against 4921517D22Rik | inactive: 0.998 |
| GGAGCGUAGAUAACUUAUCTT against Ssfa2 | inactive: 0.264 |
| GGCAAGGUCUUGGAUGUGATT against Mx1 | inactive: 0.154 |
| GGACCUCACUGAGACCUUATT against Anxa8 | inactive: -2.55 |
| GGUGAAAAGUCAAUUUUACTT against Neurog1 | inactive: 2.03 |
| CGACUUCCAGUUUGUGCAGTT against Dpp9 | inactive: 0.0443 |
| GGGCCAUCUGUACUAUGAUTT against Tgm4 | inactive: -0.339 |
| GCUUUAUGCCAGUUGUCAUTT against Slc35f1 | inactive: 0.313 |
| GGUGCUUUUAGUCUAGCUATT against Pcdhac1 | inactive: 0.0985 |

| Sequence | z-score |
| --- | --- |
| CGUGGAGGUAUGCACACGUTT against Ndrl | inactive: 1.34 |
| GGCAGCUGAUUUUUGAUGATT against A430081C19Rik | inactive: 0.647 |
| CCAUUUGAGGUAUUGGUAUTT against Acadsb | inactive: -1.38 |
| GGAAAGAAAAAUGAAGCUUTT against 2010200O16Rik | inactive: 0.909 |
| AACUUAUGGUUGGUUGUCGTT against Marveld3 | inactive: -0.299 |
| CGCACCUCCAGAUCAAAAGTT against Ucn3 | inactive: -0.0913 |
| CCCAGUGAAUCUAAGAAAATT against Zfp260 | inactive: 0.0587 |
| GGAUGUGGAGUCACUGAUGTT against 1810060J02Rik | inactive: -0.0172 |
| GCACCAAAUUUUGUGCUUUTT against Olfr395 | inactive: 0.844 |
| GCAGUAAAUGCGAGCAGGATT against Hoxb8 | inactive: -1.29 |
| GGCUGAGAACAAUAUGUAUTT against 2610001E17Rik | inactive: 0.117 |
| GCGACAAAGCUCGUUAUGATT against Hmgb2 | inactive: 1 |
| CGAAUCCUUAGUUGAAGAATT against 5330408N05Rik | inactive: -1.29 |
| GGAAGUGGAACAGGACGUATT against Caps2 | inactive: -1.12 |
| GGGCAAUCAAGAUAACAAATT against Stk35 | inactive: 0.0479 |
| CCCUGGUUAUCACAGACAATT against Rpl38 | inactive: -2.41 |
| GCUGGGAAAGCAGAAUCUATT against 0610009B22Rik | inactive: -0.761 |
| CCAAUACCUGCAAGACCUGTT against LOC234374 | inactive: -1.89 |
| GGAAAAGGAUGAUUAUGAATT against Son | inactive: -2.49 |
| CCCAUGAUAAUGAAUUAGCTT against Olfr378 | inactive: 0.948 |
| GCUCAGCAAUACUUCCUACTT against Itgal | inactive: 1.25 |
| GGAAGUGGAAAAAGUUUAGTT against Brip1 | inactive: 1.47 |
